Measured values published in article PMC8789823.
These are yes or no findings as the source states them, for the method shown. In cells and extracts the contact can be indirect. Some entries that bind do so weakly or less than the wild type.

Chains of the proteins cited; added tags and fusions are not shown. Lines headed by an entry give the natural chain unless they say otherwise; changes in a name come on top. A line that says so, or that is headed by a name, gives the form on record, which may keep a tag or linker.
AT1R S335A (phospho-code single-Ala mutant) (P30556, form named): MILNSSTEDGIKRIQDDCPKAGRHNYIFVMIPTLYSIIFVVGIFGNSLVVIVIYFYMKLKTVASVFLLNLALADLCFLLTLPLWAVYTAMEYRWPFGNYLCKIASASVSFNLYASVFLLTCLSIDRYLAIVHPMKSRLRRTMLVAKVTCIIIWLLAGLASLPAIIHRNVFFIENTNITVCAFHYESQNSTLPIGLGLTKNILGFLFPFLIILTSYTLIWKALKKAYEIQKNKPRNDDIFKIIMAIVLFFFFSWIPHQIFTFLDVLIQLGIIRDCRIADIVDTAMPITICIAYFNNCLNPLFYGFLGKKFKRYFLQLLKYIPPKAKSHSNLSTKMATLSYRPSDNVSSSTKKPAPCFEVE
AT1R S331A (phospho-code single-Ala mutant) (P30556, form named): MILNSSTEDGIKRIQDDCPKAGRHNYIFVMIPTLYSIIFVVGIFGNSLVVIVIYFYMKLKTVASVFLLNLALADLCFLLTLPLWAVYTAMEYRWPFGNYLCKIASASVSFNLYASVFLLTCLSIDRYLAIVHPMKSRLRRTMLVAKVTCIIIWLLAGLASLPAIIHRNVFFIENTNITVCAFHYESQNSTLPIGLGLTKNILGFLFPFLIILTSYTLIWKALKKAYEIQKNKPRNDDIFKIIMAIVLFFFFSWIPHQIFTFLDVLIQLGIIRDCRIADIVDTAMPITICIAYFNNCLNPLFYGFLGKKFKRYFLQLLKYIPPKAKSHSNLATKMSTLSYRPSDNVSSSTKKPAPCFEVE
AT1R S328A (phospho-code single-Ala mutant) (P30556, form named): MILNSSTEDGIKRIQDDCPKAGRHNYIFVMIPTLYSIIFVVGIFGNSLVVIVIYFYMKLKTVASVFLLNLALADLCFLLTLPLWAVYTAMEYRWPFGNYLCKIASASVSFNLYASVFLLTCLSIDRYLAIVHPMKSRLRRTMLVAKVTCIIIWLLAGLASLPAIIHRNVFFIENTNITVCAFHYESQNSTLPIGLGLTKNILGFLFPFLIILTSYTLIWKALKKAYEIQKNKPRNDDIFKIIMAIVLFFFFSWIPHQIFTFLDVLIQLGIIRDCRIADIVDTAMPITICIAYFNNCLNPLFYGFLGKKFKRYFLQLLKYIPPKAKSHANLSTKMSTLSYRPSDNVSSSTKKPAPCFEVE
AT1R S338A (phospho-code single-Ala mutant) (P30556, form named): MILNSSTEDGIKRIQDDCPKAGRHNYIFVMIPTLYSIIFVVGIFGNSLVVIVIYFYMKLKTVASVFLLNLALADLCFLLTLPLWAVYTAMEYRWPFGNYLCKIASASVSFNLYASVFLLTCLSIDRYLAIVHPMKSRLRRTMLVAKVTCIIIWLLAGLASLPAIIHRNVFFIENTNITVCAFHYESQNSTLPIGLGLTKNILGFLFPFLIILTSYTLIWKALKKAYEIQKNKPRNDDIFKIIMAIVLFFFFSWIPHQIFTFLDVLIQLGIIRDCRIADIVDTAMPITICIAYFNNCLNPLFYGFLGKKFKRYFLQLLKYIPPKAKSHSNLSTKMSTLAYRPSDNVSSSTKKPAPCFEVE
AT1R T332A (phospho-code single-Ala mutant) (P30556, form named): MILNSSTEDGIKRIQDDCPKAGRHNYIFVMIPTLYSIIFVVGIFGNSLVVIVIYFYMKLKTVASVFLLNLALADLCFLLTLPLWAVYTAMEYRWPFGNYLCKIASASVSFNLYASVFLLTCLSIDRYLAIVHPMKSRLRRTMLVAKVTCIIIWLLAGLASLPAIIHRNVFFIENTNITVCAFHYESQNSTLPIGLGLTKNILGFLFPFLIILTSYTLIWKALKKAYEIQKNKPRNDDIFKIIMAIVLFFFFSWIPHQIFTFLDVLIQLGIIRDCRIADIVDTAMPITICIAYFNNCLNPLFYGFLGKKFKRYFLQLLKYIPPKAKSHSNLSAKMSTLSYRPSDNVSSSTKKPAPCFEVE
AT1R T336A (phospho-code single-Ala mutant) (P30556, form named): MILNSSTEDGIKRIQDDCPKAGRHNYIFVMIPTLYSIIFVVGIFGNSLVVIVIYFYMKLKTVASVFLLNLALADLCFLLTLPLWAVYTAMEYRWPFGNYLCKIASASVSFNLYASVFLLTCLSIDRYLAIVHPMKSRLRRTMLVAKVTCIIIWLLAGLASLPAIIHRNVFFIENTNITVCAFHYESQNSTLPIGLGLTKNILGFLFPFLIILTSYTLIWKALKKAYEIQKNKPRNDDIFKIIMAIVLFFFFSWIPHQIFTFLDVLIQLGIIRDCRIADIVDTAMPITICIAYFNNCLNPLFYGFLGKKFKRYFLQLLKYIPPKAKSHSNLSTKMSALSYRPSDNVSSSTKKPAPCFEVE
AT1R S326A (phospho-code single-Ala mutant) (P30556, form named): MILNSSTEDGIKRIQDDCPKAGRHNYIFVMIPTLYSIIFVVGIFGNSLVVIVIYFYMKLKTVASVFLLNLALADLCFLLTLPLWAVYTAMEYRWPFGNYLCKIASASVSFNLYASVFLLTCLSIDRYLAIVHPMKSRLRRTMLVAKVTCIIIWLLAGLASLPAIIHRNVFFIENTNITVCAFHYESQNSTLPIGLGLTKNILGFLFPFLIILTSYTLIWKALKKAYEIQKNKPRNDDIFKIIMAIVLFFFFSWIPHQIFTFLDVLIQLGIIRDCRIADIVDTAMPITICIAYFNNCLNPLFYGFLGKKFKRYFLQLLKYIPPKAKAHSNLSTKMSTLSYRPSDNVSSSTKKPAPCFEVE
UniProt P50148: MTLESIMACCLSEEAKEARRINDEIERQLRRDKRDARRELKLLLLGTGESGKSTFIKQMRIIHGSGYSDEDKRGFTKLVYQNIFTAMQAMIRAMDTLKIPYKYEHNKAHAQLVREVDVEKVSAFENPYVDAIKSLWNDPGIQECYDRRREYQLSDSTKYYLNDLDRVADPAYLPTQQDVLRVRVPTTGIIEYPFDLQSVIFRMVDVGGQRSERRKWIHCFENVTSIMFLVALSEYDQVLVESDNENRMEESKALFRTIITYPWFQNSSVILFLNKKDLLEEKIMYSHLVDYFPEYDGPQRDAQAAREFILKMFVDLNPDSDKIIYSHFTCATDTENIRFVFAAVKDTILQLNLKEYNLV
UniProt P49407: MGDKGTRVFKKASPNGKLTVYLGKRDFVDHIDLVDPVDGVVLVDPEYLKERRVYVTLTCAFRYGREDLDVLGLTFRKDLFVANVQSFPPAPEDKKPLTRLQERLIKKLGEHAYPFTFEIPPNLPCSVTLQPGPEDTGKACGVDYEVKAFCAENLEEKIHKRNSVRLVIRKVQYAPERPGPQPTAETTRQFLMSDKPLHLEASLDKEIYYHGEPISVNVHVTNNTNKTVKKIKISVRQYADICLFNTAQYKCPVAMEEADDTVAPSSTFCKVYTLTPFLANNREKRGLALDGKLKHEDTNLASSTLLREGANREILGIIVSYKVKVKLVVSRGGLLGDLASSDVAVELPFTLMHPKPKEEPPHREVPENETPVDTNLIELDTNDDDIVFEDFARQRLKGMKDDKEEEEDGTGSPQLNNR
Lg-β-arrestin1 with the truncation in the finger-loop region (∆FLR) (P49407, form named): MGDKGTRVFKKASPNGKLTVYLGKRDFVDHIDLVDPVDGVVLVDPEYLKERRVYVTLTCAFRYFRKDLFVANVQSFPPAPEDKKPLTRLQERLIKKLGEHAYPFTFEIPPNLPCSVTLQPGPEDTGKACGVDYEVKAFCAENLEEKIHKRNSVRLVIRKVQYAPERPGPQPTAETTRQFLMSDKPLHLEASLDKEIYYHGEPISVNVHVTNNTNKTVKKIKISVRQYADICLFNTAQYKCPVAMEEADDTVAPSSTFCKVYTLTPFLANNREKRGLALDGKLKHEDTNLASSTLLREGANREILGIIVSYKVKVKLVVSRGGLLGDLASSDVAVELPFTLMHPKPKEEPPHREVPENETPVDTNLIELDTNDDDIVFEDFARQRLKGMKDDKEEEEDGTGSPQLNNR
UniProt P34947: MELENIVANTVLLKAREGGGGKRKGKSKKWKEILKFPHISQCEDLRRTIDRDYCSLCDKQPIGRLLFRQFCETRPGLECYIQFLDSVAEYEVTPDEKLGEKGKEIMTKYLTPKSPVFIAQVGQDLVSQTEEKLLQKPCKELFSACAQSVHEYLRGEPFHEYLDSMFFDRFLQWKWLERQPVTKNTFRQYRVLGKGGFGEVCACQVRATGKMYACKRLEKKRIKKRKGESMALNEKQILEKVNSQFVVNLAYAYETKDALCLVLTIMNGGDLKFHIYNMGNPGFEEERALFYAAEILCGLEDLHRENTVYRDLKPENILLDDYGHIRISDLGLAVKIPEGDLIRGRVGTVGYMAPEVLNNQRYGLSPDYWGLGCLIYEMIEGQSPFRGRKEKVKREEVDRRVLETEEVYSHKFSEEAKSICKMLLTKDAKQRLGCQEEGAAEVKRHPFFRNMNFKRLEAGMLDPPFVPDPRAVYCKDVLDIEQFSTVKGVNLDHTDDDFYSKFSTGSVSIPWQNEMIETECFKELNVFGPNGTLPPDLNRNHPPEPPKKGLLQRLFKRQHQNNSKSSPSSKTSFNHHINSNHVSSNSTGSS
UniProt P43250: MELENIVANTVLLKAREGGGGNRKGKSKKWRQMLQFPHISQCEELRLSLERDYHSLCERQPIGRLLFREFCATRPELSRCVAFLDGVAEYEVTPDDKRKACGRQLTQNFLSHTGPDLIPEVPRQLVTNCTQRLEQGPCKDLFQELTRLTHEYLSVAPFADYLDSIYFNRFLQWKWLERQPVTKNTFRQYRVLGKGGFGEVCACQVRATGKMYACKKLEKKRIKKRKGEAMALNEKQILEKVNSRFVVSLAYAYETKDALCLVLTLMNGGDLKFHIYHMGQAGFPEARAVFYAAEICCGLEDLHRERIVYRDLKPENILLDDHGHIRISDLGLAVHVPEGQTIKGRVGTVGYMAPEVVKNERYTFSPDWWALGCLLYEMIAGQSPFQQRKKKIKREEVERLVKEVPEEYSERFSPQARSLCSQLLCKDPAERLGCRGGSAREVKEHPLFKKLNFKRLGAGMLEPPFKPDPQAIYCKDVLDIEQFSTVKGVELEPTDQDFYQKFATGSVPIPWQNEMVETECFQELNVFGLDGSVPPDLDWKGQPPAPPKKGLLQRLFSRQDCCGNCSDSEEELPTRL

Experiments:
[1] = molecular target: AT1R-Sm (angiotensin II type-1 receptor C-terminally fused to SmBiT) (human) (UniProt P30556); assay: split reporter; NanoBiT β-arrestin-recruitment assay as a1, but in ΔGRK2/3/5/6 cells (GRK2, GRK3, GRK5 and GRK6 deleted); Ang II stimulation, Go6983 pretreatment
[2] = molecular target: AT1R S335A (phospho-code single-Ala mutant) (human) (UniProt P30556); assay: split reporter; NanoBiT β-arrestin-recruitment assay: AT1R-Sm and Lg-β-arrestin co-expressed in parent HEK293A cells (also ΔGRK2/3 and ΔGRK5/6 cells); living cells in suspension, HBSS with 0.01% BSA and 5 mM HEPES pH 7.4, coelenterazine, room temperature; 1 µM Ang II or 1 µM TRV027, with or without 1 µM YM-254890; Go6983 pretreatment
[3] = molecular target: AT1R S331A (phospho-code single-Ala mutant) (human) (UniProt P30556); assay: as above
[4] = molecular target: AT1R S328A (phospho-code single-Ala mutant) (human) (UniProt P30556); assay: as above
[5] = molecular target: AT1R S338A (phospho-code single-Ala mutant) (human) (UniProt P30556); assay: as above
[6] = molecular target: AT1R T332A (phospho-code single-Ala mutant) (human) (UniProt P30556); assay: as above
[7] = molecular target: AT1R-Sm (angiotensin II type-1 receptor C-terminally fused to SmBiT) (human) (UniProt P30556); assay: as above
[8] = molecular target: AT1R T336A (phospho-code single-Ala mutant) (human) (UniProt P30556); assay: as above
[9] = molecular target: AT1R S326A (phospho-code single-Ala mutant) (human) (UniProt P30556); assay: as above
[10] = molecular target: ∆tail-phos AT1R (C-terminally phosphorylation-deficient AT1R, all twelve Ser and Thr of the C-terminal region replaced with Ala) (human) (UniProt P30556); assay: as above
[11] = molecular target: Gαq-Lg (human Gαq subunit with LgBiT inserted into the helical domain between residues 123-124) (human) (UniProt P50148); assay: split reporter; Gαq-GRK proximity assay: Gαq-Lg and Sm-GRK5 or Sm-GRK6 co-expressed with Gβ1, Gγ2, RIC8A and AT1R in parent cells; basal signal and change after 1 µM Ang II, 1 µM TRV027 or Ang II + 1 µM YM-254890
[12] = molecular target: Gαq-Lg (human Gαq subunit with LgBiT inserted into the helical domain between residues 123-124) (human) (UniProt P50148); assay: split reporter + FRET or BRET; NanoBiT-BRET imaging of single living parent cells: Gαq-Lg, Sm-GRK6 and AT1R-mVenus co-expressed with Gβ1, Gγ2 and RIC8A; furimazine; before and after vehicle, Ang II, TRV027 or Ang II + YM-254890; controls with HaloTag-fused AT1R or NanoLuc-fused Gαi1

Row | Substance | binding [7] | binding [10] | binding [11] | binding [1] | also measured
1 | Lg-β-arrestin1 (LgBiT-fused β-arrestin1) (from UniProt P49407 1-418) | binds | – | – | no binding (condition: in ΔGRK2/3/5/6 cells) | binding [2]: binds; binding [3]: binds; binding [4]: binds; binding [5]: binds; binding [6]: binds; binding [8]: binds; binding [9]: binds
2 | Lg-β-arrestin1 with the truncation in the finger-loop region (∆FLR) (from UniProt P49407 1-418) | binds | – | – | – | –
3 | Lg-β-arrestin2 (LgBiT-fused β-arrestin2) (from UniProt P32121 1-409) | binds | binds weakly | – | binds weakly | –
4 | Sm-GRK5 (GRK5 N-terminally fused to SmBiT) (from UniProt P34947 1-590) (enzyme) | – | – | binds | – | –

The next lines start with results.

Row | binding [7] | binding [10] | binding [11] | Substance | binding [1] | also measured
5 | binds | no binding | – | Lg-β-arrestin2 with the truncation in the finger-loop region (∆FLR) (from UniProt P32121 1-409) | no binding (condition: in ΔGRK2/3/5/6 cells) | –
6 | – | – | binds | Sm-GRK6 (GRK6 N-terminally fused to SmBiT) (from UniProt P43250 1-576) (enzyme) | – | binding [12]: binds
